The results in this text go back to article PMC4906247.

Protein sequences, listed by entry. Tags and fused reporters are not part of them.
UniProt Q9UIK4: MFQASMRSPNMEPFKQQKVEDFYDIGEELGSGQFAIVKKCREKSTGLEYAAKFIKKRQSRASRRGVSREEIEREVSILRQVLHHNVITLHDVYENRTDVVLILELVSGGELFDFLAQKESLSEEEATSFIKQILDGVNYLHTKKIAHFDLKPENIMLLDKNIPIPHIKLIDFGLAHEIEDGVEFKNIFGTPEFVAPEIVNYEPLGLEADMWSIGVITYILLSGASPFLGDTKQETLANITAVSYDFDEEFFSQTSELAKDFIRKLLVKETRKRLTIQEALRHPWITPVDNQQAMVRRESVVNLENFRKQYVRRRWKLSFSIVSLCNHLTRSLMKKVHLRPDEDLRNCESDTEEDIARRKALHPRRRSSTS

The test concerns the target full-length hDAPK2 (hDAPK2 FL), BiFC construct (human) (UniProt Q9UIK4). The test can be described thus: split reporter; bimolecular fluorescence complementation in HEK293T cells, readout normalized to protein expression; endogenous Ca2+/CaM present.

No constants are given. Whether binding was seen depends on the method and setting. In cells and extracts the contact can be indirect. Some entries that bind do so weakly or less than the wild type.

For the substance “full-length hDAPK2 (hDAPK2 FL), BiFC construct (from UniProt Q9UIK4 1-370)”, the binding result is on record as “binds”.
